Measured values as given in publication PMC4887035.
Results are given in words; binding and its absence hold for the method and conditions named. Binding seen in cells or lysates may run through a third protein.

Target: T1, CaSR calcium sensing receptor (UniProt P41180)
T1 sequence: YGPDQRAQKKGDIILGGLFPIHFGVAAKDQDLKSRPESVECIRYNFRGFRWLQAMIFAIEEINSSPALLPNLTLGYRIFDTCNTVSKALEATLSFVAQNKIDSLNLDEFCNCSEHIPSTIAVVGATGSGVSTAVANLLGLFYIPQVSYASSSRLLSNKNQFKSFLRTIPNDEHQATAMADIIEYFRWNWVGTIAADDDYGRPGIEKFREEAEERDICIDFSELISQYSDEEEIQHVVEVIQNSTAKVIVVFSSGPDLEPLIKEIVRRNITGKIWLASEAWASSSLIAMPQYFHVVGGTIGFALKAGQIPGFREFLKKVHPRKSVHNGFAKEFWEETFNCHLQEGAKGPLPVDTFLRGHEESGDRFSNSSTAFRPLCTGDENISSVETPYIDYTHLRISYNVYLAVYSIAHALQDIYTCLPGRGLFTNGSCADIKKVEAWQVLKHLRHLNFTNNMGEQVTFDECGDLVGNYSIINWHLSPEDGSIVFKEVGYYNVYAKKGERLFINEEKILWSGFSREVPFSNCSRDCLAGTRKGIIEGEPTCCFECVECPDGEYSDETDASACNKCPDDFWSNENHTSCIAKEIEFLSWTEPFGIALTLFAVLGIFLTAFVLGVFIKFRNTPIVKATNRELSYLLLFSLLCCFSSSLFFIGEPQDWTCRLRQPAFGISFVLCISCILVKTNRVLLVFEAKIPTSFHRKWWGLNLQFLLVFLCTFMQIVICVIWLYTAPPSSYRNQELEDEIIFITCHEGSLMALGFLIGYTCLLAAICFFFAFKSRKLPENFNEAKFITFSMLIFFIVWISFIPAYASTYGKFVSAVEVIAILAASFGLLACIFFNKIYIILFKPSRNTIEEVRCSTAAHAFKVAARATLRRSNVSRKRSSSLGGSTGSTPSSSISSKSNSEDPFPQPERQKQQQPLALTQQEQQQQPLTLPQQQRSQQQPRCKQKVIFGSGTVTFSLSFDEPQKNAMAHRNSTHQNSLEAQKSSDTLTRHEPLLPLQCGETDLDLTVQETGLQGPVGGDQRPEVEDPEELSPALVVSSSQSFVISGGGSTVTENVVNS
Assay: FRET or BRET; quantitative BRET in HEK293 cells transiently transfected with increasing amounts of RLuc donor and Venus acceptor plasmids (total plasmid kept constant with empty pcDNA3.1); BRET ratio Emission530/Emission485 plotted against Venus fluorescence; slopes of low and high luminescence groups (threshold 1.2 a.u.) compared by ANCOVA and two-way ANOVA

AT1R-Venus (receptor)
binding: no binding
